The results in this text go back to the supplement of paper PMC12819154, “High-throughput peptide-centric local stability assay extends protein–ligand identification to membrane proteins, tissues and bacteria” (Nature Structural & Molecular Biology, 2025).

Protein sequences, listed by entry. Tags and fused reporters are not part of them. Lines headed by an entry give the natural chain unless they say otherwise; changes in a name come on top.
UniProt Q8JZL3: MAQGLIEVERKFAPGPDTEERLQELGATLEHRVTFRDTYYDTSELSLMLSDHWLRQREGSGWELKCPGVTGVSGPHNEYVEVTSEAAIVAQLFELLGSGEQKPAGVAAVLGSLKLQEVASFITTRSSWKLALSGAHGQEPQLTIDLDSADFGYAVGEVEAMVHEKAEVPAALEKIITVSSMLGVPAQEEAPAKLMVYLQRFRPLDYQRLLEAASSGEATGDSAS
UniProt Q8K3W0, whole entry: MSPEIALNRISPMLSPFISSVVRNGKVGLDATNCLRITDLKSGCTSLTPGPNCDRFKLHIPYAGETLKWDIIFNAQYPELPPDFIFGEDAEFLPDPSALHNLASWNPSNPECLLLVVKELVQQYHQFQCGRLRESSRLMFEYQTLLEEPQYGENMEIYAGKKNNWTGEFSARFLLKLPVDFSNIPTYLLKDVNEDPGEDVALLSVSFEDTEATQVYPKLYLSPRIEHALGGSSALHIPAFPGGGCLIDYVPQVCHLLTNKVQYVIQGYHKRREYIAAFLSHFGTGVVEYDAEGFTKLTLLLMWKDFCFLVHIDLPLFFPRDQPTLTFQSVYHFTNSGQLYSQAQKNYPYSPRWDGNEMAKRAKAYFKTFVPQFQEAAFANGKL
UniProt Q8K215: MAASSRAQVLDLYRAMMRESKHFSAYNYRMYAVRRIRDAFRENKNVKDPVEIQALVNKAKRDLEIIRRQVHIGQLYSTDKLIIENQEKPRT
UniProt Q8R0Z5: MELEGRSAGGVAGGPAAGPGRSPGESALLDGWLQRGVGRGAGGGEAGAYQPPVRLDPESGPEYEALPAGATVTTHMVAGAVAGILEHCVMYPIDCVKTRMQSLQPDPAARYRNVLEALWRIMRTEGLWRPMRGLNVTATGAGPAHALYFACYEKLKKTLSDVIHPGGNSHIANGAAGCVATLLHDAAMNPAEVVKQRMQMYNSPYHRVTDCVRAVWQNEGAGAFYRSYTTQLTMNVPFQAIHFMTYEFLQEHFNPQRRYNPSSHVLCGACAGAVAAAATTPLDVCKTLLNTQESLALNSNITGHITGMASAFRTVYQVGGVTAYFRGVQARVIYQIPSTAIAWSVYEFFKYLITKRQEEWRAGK
UniProt Q8R146: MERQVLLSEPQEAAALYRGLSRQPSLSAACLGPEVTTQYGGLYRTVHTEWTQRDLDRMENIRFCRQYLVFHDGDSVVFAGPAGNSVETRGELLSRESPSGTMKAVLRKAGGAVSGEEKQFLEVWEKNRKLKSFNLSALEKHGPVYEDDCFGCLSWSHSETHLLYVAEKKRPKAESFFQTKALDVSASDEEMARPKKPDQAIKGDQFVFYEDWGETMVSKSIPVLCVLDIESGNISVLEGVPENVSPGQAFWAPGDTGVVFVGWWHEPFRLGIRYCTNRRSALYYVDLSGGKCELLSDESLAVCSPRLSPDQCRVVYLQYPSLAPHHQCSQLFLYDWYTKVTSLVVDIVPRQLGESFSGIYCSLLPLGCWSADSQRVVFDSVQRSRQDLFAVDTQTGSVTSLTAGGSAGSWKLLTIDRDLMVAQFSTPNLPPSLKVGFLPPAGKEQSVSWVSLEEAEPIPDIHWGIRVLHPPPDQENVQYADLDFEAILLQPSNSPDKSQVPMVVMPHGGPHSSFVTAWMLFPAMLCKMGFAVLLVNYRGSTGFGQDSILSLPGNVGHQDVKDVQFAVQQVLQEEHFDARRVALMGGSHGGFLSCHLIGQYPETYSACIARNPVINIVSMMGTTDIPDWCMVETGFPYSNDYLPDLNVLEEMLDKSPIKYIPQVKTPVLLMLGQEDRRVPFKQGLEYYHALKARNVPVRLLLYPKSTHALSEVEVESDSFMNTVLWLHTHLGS
UniProt Q8CI75: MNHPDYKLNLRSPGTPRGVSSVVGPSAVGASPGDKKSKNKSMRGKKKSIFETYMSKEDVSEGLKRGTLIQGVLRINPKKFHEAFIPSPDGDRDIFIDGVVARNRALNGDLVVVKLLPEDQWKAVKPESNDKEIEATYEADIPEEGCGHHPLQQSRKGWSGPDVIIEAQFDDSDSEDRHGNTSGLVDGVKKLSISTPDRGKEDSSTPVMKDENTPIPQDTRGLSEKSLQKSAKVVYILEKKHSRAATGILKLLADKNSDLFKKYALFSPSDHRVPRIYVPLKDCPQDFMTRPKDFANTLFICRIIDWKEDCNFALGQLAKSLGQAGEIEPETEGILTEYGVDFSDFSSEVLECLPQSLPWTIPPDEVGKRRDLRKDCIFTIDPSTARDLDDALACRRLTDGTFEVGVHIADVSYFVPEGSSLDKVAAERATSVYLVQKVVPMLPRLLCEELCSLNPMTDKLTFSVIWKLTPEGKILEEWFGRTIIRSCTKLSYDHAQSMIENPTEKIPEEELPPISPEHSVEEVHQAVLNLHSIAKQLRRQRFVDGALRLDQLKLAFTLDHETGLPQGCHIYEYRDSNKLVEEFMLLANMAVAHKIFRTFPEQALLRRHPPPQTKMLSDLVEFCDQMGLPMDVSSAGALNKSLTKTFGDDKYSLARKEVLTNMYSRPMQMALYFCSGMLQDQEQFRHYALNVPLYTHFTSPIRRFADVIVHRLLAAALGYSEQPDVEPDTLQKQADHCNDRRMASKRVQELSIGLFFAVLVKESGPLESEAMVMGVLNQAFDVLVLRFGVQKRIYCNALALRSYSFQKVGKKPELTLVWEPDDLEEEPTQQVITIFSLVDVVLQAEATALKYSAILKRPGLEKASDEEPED
UniProt Q8VC03: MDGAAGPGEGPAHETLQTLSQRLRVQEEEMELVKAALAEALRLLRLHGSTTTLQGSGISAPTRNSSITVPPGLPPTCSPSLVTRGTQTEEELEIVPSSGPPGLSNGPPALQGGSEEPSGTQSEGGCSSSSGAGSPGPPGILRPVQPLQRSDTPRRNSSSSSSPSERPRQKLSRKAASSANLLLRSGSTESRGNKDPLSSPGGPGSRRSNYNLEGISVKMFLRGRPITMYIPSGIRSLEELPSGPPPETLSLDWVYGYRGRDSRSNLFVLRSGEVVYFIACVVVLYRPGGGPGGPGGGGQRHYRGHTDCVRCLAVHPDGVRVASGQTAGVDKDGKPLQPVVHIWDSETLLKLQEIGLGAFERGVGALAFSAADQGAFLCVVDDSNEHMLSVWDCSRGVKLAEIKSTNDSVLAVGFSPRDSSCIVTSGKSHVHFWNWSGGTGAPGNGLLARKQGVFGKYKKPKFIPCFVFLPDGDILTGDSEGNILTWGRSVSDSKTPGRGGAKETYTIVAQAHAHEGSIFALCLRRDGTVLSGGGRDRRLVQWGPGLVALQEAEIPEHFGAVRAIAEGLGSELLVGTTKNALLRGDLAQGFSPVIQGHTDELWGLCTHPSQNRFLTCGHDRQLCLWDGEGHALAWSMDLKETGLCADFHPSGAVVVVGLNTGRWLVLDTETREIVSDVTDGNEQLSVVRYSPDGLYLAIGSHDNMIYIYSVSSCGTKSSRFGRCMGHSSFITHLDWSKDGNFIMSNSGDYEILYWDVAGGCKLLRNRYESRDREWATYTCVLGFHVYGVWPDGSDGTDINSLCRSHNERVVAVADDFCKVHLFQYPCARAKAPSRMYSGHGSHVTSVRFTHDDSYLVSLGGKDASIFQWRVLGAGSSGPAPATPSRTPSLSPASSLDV
UniProt Q8R0W6: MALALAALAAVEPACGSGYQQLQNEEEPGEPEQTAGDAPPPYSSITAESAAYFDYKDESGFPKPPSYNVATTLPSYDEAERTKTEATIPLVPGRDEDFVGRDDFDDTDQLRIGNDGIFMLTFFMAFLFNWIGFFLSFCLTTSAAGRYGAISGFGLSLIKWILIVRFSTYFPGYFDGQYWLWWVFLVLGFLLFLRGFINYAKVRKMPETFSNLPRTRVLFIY
UniProt Q8CJ19: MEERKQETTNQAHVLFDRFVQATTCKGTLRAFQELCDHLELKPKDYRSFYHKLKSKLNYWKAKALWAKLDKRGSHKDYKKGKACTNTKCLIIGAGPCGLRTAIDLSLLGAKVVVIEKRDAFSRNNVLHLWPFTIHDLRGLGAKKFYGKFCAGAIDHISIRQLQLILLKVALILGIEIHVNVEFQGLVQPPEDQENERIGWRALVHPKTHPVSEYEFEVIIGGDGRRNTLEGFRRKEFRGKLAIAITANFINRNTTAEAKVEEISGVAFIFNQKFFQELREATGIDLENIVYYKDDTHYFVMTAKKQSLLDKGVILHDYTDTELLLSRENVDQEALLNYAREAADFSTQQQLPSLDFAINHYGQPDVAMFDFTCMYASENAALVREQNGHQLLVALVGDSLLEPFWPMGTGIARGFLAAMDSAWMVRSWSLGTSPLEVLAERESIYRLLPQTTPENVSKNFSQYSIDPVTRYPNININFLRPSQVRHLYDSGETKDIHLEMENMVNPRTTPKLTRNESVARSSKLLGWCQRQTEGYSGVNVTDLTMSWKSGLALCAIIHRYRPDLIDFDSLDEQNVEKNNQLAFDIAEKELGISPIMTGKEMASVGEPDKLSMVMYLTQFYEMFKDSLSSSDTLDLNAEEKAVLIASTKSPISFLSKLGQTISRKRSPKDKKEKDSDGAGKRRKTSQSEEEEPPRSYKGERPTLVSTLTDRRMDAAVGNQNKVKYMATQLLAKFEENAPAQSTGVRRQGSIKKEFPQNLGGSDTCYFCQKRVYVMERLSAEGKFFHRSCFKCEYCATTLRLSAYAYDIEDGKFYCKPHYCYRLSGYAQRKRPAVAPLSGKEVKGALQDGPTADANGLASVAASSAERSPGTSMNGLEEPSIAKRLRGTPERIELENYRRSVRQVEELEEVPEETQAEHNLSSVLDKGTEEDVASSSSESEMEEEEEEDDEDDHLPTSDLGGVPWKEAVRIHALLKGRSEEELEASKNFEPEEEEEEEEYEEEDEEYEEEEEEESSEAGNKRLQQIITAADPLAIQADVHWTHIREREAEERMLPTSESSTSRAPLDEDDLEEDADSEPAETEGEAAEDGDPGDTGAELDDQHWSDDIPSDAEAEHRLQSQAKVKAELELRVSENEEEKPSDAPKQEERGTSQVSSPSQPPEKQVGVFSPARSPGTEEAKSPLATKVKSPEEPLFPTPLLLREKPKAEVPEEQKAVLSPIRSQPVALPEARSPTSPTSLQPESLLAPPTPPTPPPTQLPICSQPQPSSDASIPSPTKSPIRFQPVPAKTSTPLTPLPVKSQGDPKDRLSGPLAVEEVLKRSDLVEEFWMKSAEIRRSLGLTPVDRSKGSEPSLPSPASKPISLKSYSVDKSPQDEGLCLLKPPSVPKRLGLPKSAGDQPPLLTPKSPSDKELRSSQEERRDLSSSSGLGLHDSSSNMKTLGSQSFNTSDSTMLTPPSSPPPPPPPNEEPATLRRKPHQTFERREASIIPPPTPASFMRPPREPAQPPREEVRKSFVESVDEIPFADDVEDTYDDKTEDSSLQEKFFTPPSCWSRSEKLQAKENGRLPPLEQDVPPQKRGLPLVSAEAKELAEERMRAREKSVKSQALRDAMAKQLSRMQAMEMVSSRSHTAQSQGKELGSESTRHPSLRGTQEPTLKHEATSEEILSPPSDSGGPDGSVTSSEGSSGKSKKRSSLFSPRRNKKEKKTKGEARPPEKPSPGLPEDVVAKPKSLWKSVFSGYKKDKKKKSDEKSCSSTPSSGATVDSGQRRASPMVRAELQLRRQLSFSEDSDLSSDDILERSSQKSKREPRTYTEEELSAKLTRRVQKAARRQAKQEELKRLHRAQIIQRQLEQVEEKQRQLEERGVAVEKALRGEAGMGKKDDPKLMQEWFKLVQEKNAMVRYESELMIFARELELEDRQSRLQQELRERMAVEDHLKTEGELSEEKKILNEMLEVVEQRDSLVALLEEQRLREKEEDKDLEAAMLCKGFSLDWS
UniProt Q8R2Q4: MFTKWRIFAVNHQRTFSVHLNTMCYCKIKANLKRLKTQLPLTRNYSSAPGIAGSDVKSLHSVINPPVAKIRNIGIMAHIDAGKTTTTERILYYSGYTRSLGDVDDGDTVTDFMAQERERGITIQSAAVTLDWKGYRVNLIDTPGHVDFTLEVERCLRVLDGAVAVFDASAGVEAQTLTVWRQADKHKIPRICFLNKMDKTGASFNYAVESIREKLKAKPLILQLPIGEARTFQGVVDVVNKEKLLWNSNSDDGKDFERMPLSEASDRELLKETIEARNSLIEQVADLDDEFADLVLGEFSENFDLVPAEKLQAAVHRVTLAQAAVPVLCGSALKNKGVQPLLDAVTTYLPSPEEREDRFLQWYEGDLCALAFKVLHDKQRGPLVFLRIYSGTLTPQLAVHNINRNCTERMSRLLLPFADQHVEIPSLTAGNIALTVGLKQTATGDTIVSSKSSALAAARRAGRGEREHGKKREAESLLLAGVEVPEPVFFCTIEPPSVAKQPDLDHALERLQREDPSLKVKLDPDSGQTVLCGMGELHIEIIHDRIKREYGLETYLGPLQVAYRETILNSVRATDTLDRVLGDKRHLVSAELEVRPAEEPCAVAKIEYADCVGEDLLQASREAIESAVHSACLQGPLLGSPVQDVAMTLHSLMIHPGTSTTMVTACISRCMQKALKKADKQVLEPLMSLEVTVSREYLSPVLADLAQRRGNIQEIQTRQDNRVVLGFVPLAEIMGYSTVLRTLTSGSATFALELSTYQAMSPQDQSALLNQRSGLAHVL

The other results are listed elsewhere or left out. Most entries show no effect beyond the scatter of the controls.

Compound in this assay: CN[C@@H]1C[C@H]2O[C@@](C)([C@@H]1OC)n1c3ccccc3c3c4c(c5c6ccccc6n2c5c31)C(=O)NC4 [staurosporine]
In words: log2 fold change of pooled soluble protein (PISA), ligand vs vehicle (log2 ratio); higher = more thermally stabilized. The note with it: ligand concentration: 20 uM; assay format: PISA pool 52.9/55.5/58.6 C.
As for UniProt Q8R409, the “log2 fold change of pooled soluble protein” value (“log2 fold change” below) turned out to be 0.016.

On to UniProt Q8K310, for which the “log2 fold change” value is -0.00429.

Take UniProt Q8JZL3: the “log2 fold change” value is -0.136.

Consider UniProt Q8QZS1, for which the “log2 fold change” value was 0.0605.

As to UniProt Q8VCH6, the “log2 fold change” value is -0.0516.

Regarding UniProt Q8R1B4, the “log2 fold change” value was -0.0742.

As for UniProt Q8K3W0, the “log2 fold change” value is 0.126.

On to UniProt Q8JZR0, for which the “log2 fold change” value is -0.146.

For the target UniProt Q8K215, the “log2 fold change” value is -0.173.

As for UniProt Q8VCB3, the “log2 fold change” value came out at 0.00688.

For the target UniProt Q8R050, the “log2 fold change” value is -0.0587.

Take UniProt Q8R0Z5: the “log2 fold change” value was 0.181.

With UniProt Q8R146, the “log2 fold change” value was -0.0266.

Regarding UniProt Q8CI75, the “log2 fold change” value is -0.132.

In the case of UniProt Q8JZZ0, the “log2 fold change” value was 0.00677.

Consider UniProt Q8R4Y4, for which the “log2 fold change” value is -0.0313.

For UniProt Q8VC03, the “log2 fold change” value worked out at 0.0513.

As for UniProt Q8CH02, the “log2 fold change” value was found to be 0.103.

UniProt Q8R4U0: the “log2 fold change” value was determined as 0.0176.

Take UniProt Q8CGF1: the “log2 fold change” value was found to be 0.147.

Take UniProt Q8R0F3: the “log2 fold change” value was found to be 0.221.

With UniProt Q8R0W6, the “log2 fold change” value turned out to be 0.742.

Regarding UniProt Q8CIB6, the “log2 fold change” value is -0.0231.

Consider UniProt Q8CJ19, for which the “log2 fold change” value was -0.267.

For the target UniProt Q8R2Q4, the “log2 fold change” value is -0.0707.

With UniProt Q8CI32, the “log2 fold change” value amounted to 0.0804.

As for UniProt Q8R2M2, the “log2 fold change” value is -0.0555.

As to UniProt Q8K296, the “log2 fold change” value was -0.174.

Take UniProt Q8JZV9: the “log2 fold change” value amounted to 0.0743.

For the target UniProt Q8K2I1, the “log2 fold change” value was 0.213.

Consider UniProt Q8K1Z0, for which the “log2 fold change” value is 0.00556.

As for UniProt Q8K2Q0, the “log2 fold change” value came out at 0.125.

With UniProt Q8R3P0, the “log2 fold change” value was found to be 0.143.

Turning to UniProt Q8R123, the “log2 fold change” value is 0.0306.

On to UniProt Q8R5F7, for which the “log2 fold change” value was -0.124.

Take UniProt Q8VBX6: the “log2 fold change” value was -0.19.

Turning to UniProt Q8R0Y6, the “log2 fold change” value was -0.0917.
